Measured values as given in the supplement of paper PMC10849652.
The list shows a part of the results.

Protein sequences, listed by entry. Tags and fused reporters are not part of them. Lines headed by an entry give the natural chain unless they say otherwise; changes in a name come on top.
UniProt Q5VW00: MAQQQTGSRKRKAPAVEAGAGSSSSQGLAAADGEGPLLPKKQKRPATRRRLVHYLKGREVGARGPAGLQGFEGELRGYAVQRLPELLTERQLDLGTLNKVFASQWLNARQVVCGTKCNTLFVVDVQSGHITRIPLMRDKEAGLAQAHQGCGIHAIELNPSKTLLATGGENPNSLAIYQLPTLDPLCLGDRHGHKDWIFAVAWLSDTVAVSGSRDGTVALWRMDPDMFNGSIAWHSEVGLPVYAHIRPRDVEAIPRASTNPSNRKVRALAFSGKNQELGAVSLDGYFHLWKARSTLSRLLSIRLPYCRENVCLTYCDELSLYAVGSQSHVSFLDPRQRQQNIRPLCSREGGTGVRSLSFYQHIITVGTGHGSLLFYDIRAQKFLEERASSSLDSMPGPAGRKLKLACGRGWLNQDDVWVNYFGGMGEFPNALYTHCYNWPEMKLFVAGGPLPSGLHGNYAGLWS
UniProt Q9HBI6: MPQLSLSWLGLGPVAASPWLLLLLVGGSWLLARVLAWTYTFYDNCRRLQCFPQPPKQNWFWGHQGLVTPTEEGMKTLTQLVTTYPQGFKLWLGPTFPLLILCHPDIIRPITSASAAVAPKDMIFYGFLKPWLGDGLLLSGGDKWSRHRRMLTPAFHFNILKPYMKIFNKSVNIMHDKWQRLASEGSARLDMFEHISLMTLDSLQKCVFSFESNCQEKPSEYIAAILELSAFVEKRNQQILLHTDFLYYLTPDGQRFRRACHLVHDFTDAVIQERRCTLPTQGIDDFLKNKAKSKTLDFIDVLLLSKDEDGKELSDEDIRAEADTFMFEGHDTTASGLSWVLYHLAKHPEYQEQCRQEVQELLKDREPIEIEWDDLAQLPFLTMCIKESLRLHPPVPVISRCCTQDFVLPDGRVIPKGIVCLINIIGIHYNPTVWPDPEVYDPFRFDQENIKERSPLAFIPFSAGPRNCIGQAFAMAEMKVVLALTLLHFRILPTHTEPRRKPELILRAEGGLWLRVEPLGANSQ
UniProt Q96PD2: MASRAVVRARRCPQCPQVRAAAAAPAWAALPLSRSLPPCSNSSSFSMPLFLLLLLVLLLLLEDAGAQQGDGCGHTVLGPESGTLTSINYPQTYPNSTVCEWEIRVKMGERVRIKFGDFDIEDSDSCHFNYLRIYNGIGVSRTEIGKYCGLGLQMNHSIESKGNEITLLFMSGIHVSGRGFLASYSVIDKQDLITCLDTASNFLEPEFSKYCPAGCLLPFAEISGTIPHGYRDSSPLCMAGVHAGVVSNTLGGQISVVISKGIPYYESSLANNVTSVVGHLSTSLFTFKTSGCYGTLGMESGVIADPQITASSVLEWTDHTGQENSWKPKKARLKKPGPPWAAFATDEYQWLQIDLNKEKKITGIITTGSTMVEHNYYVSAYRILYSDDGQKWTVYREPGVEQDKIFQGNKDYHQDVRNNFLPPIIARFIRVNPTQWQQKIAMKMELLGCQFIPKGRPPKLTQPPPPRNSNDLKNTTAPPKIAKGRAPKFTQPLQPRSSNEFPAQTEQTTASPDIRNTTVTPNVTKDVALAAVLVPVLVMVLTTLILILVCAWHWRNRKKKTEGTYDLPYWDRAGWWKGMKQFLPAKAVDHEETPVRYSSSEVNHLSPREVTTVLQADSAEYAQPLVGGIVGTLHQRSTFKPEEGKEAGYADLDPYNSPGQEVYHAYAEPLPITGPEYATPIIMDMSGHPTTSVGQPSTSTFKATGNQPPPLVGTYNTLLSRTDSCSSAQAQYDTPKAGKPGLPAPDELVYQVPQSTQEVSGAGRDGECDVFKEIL
UniProt Q96SD1, whole entry, looked up: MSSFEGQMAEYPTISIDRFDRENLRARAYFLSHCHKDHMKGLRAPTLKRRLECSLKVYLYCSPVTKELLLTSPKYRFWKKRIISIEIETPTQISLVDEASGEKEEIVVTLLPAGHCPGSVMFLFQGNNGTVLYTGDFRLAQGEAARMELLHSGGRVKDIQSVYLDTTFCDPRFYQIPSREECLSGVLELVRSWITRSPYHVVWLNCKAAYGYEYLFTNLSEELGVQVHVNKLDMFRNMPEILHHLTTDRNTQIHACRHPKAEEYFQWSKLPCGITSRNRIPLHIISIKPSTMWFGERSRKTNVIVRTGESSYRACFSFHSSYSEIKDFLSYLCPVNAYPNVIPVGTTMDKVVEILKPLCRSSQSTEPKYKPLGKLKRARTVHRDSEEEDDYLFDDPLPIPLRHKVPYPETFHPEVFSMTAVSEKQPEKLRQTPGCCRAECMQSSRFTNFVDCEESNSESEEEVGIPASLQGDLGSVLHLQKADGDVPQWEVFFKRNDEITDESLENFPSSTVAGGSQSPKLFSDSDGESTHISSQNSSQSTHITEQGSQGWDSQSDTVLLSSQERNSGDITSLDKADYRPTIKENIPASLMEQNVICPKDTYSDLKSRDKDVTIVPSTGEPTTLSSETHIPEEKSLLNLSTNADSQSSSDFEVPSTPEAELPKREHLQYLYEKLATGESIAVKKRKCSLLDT
UniProt O43739: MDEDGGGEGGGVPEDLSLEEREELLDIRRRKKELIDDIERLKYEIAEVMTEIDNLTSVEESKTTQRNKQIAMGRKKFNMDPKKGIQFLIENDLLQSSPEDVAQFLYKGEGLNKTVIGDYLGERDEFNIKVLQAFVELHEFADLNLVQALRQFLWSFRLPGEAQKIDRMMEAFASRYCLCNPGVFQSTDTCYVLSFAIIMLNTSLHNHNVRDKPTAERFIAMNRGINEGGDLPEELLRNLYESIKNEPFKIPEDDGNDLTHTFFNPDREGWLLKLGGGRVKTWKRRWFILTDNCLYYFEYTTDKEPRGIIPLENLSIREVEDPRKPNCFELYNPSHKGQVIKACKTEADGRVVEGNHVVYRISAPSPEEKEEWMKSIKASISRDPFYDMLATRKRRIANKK
UniProt Q15038: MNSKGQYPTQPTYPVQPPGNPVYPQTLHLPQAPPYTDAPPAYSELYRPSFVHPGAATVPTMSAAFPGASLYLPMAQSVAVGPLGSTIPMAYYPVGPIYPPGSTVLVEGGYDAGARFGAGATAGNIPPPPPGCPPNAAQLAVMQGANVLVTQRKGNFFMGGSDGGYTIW
UniProt Q8IV53: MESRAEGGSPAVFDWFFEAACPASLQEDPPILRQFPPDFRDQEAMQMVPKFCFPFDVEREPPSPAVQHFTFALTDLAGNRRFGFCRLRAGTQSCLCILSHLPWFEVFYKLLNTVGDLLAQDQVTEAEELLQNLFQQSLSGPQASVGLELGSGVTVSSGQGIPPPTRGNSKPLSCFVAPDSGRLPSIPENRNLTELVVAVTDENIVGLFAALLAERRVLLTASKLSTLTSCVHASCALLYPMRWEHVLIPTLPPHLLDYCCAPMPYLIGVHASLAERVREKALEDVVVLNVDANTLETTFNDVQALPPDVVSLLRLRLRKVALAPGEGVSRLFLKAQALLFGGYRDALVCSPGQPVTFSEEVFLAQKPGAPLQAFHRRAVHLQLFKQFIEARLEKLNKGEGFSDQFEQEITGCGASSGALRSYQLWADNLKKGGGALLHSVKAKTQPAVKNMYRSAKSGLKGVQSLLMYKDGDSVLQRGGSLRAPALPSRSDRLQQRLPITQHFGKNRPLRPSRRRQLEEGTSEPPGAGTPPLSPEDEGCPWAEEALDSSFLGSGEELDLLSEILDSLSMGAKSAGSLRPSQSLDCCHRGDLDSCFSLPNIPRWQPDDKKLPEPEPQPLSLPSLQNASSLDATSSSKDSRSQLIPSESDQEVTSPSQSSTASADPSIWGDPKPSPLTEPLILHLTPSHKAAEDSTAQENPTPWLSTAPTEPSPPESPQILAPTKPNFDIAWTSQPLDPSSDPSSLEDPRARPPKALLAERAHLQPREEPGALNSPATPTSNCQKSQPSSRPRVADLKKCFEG
UniProt Q6IQ26: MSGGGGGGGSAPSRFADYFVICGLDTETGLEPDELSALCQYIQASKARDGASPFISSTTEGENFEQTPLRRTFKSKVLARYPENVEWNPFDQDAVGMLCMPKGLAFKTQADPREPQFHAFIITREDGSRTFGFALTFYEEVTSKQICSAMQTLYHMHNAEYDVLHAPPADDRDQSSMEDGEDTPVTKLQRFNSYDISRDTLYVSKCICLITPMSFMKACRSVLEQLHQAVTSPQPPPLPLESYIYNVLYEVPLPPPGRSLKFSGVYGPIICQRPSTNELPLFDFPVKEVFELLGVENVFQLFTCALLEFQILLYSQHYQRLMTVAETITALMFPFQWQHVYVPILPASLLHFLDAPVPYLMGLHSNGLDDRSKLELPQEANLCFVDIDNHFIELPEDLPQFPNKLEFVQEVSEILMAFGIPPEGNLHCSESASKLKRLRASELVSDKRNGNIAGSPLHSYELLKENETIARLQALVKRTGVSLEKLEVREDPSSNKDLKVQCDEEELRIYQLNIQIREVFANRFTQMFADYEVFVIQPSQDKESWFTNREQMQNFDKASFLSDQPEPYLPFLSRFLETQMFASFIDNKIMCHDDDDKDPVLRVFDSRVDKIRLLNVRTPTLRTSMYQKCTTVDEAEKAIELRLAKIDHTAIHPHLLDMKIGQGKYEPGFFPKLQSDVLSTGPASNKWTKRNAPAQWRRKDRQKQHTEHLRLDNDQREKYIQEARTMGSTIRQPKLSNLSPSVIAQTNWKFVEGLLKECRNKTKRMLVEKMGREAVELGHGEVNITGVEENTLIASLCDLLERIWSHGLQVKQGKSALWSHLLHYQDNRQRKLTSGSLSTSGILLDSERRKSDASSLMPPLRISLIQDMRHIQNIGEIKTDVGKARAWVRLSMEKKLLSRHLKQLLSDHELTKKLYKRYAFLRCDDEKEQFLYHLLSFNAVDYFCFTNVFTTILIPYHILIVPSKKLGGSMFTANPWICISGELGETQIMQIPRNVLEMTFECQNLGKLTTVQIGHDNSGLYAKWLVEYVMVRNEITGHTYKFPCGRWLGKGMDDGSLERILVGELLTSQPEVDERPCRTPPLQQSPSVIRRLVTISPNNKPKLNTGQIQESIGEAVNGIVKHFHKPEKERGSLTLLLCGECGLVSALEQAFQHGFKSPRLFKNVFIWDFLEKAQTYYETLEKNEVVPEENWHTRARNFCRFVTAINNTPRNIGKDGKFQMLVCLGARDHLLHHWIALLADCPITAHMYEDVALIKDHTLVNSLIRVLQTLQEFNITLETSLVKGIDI
UniProt Q9NX09: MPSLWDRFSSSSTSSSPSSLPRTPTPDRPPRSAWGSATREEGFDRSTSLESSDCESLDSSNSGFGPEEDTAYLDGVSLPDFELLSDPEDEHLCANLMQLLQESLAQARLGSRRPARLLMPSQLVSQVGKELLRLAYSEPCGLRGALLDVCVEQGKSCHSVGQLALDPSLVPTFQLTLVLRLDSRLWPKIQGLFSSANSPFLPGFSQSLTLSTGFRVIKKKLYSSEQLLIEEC
UniProt Q5D0E6: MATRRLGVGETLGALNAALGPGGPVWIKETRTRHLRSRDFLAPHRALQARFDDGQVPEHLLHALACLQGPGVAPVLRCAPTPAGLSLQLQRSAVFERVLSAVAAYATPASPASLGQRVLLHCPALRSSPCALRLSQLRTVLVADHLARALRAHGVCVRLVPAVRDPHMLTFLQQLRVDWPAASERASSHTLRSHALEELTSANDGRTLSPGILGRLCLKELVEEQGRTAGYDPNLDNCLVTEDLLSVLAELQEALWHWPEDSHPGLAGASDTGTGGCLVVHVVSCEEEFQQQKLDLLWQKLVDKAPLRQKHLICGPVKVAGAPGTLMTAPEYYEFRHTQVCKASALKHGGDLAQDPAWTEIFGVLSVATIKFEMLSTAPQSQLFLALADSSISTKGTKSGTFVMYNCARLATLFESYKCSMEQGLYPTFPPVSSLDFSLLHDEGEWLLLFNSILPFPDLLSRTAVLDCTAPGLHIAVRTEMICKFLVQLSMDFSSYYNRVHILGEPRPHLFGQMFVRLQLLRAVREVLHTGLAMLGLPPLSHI

Tests used:
Assay in all cases: log2 fold change, soluble protein after heating vs DMSO (PISA); higher = thermal stabilisation; K562 lysate, 10 uM; active = over 0.2 and 3.5 SD of the protein, either way, in both replicates (recomputed)
[1] = compound: NCC(=O)Nc1ccc(-n2nc(C(F)(F)F)cc2-c2ccc3c(ccc4ccccc43)c2)cc1
Outline: (§1)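 To prepare the extract, K562 pellets were dounce-homogenised in PBS pH 7.4 with 1 mM MgCl2, giving crude material at 1 mg/mL protein. This was treated with 10 μM compound for 30 min, then heated in aliquots for 3 min over 48°C-58°C before pooling and addition of NP-40 to 0.5% at 4°C. Centrifugation at 21,000xg for 90 min left soluble protein in the supernatant, which TMTpro 16plex LC-MS/MS quantified with equalised channel sums. Results are log-two fold changes in thermal stability compared with solvent controls, from duplicates.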

[2] = compound: c1cn2cc(-c3ccc4cn[nH]c4c3)nc(Nc3ccc(N4CCOCC4)cc3)c2n1 [entospletinib]
Outline: as §1

[3] = compound: Cc1cn(-c2cc(NC(=O)c3ccc(C)c(Nc4nccc(-c5cccnc5)n4)c3)cc(C(F)(F)F)c2)cn1 [nilotinib]
Outline: as §1

[4] = compound: Cc1nc(Nc2n[nH]c3c2CN(C(=O)N[C@H](CN(C)C)c2ccccc2)C3(C)C)c2sccc2n1
Outline: as §1

[5] = compound: Cc1ncc(-c2ccnc(Nc3ccc(S(C)(=O)=O)cc3)n2)n1C(C)C
Outline: as §1

[6] = compound: Cn1cncc1[C@@](N)(c1ccc(Cl)cc1)c1ccc2c(c1)c(-c1cccc(Cl)c1)cc(=O)n2C [tipifarnib]
Outline: as §1

[7] = compound: Cc1nc(Nc2ncc(C(=O)Nc3c(C)cccc3Cl)s2)cc(N2CCN(CCO)CC2)n1 [dasatinib]
Outline: as §1

[8] = compound: Cn1cc(-c2ccc3c(c2)CCN3C(=O)Cc2cccc(C(F)(F)F)c2)c2c(N)ncnc21
Outline: as §1

[9] = compound: NC(=O)c1cnc(N[C@@H]2CCCC[C@@H]2N)nc1Nc1cccc(-n2nccn2)c1
Outline: as §1

[10] = compound: Cn1cc(CNCC2CCN(c3ncc(C(=O)NO)cn3)CC2)c2ccccc21 [quisinostat]
Outline: as §1

[11] = compound: NC(=O)Nc1cc(-c2cccc(F)c2)sc1C(=O)N[C@H]1CCCNC1
Outline: as §1

[12] = compound: O=C1NC(=O)C(c2cnc3ccccn23)=C1c1cn2c3c(cc(F)cc13)CN(C(=O)N1CCCCC1)CC2
Outline: as §1

[13] = compound: NC1(c2ccc(-c3nc4ccn5c(=O)[nH]nc5c4cc3-c3ccccc3)cc2)CCC1
Outline: as §1

[14] = compound: O=C(CCCCCCC(=O)Nc1ccccc1)NO [vorinostat]
Outline: as §1

[15] = compound: O=C(O)c1ccc2c(c1)nc(Nc1cccc(Cl)c1)c1ccncc12 [silmitasertib]
Outline: as §1

Measured: log2 fold change

DCAF12L2 (UniProt Q5VW00)
inactive: [1] 0.022 | [2] -0.006

DAZAP1 (UniProt K7EQ02)
inactive: [3] -0.221 | [4] 0.096 | [5] 0.119 | [6] -0.039

CYP4F11 (UniProt Q9HBI6)
inactive: [7] 1.32 | [8] -0.148

DCBLD2 isoform 2 (UniProt Q96PD2)
inactive: [7] 0.025 | [8] -0.213 | [9] -0.035

DCLRE1C (UniProt Q96SD1)
inactive: [10] -0.139 | [11] 0.035 | [9] 0.088 | [12] 0.045

CYTH3 (UniProt O43739)
inactive: [9] -0.053

DAZAP2 (UniProt Q15038)
inactive: [13] -0.113 | [14] 0.043 | [15] -0.1

DENND1C (UniProt Q8IV53)
inactive: [7] -0.007 | [8] -0.038 | [10] -0.172 | [11] 0.043 | [13] -0.078 | [1] 0.086 | [14] -0.022 | [15] -0.023 | [12] 0.2

DENND5A (UniProt Q6IQ26)
inactive: [7] 0.054 | [8] 0.074 | [10] -0.141 | [11] 0.11 | [12] -0.02

DDIT4 (UniProt Q9NX09)
inactive: [10] -0.086 | [11] 0.083 | [1] 0.018 | [12] 0.041 | [2] -0.038

DALRD3 (UniProt Q5D0E6)
inactive: [9] -0.03 | [13] 0.207 | [1] -0.17 | [15] 0.074 | [2] -0.046
active: [14] -0.895
